Results taken from PMC4172902.
Results are given in words; binding and its absence hold for the method and conditions named. In cells and extracts the contact can be indirect. Here binding means that the protein was enriched with, or labelled near, the bait; the list need not be complete. Sequences can lack the tags named with a protein.

Protein sequences, listed by entry. Tags and fused reporters are not part of them. Residues count along the entry.
UniProt P40939, residues 37-763: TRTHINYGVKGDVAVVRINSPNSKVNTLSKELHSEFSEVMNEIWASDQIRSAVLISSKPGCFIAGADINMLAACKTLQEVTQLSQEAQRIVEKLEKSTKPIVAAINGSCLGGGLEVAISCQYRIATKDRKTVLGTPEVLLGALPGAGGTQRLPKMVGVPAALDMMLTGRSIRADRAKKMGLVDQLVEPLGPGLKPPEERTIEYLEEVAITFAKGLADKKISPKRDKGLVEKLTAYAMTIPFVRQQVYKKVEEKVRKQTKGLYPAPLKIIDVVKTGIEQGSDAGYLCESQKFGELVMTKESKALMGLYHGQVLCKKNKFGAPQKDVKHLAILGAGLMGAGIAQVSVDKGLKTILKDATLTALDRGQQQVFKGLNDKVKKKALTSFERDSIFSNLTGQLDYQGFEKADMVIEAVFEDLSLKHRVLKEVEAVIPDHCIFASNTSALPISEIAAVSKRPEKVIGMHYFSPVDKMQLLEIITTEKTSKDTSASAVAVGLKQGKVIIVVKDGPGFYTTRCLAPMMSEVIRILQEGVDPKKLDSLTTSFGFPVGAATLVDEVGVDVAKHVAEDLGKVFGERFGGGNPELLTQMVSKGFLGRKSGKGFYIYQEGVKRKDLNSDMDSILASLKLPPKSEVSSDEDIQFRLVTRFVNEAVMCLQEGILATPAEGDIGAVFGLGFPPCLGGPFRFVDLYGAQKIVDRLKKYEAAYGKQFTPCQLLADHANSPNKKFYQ
UniProt P12235: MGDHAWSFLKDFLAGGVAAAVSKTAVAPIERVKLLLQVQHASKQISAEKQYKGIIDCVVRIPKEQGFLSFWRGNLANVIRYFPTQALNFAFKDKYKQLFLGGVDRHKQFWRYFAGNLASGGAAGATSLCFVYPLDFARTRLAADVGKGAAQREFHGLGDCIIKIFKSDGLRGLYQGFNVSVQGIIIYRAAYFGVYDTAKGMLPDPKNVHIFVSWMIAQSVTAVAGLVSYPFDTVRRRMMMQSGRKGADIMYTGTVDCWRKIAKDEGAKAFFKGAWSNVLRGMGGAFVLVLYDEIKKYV
UniProt P09874: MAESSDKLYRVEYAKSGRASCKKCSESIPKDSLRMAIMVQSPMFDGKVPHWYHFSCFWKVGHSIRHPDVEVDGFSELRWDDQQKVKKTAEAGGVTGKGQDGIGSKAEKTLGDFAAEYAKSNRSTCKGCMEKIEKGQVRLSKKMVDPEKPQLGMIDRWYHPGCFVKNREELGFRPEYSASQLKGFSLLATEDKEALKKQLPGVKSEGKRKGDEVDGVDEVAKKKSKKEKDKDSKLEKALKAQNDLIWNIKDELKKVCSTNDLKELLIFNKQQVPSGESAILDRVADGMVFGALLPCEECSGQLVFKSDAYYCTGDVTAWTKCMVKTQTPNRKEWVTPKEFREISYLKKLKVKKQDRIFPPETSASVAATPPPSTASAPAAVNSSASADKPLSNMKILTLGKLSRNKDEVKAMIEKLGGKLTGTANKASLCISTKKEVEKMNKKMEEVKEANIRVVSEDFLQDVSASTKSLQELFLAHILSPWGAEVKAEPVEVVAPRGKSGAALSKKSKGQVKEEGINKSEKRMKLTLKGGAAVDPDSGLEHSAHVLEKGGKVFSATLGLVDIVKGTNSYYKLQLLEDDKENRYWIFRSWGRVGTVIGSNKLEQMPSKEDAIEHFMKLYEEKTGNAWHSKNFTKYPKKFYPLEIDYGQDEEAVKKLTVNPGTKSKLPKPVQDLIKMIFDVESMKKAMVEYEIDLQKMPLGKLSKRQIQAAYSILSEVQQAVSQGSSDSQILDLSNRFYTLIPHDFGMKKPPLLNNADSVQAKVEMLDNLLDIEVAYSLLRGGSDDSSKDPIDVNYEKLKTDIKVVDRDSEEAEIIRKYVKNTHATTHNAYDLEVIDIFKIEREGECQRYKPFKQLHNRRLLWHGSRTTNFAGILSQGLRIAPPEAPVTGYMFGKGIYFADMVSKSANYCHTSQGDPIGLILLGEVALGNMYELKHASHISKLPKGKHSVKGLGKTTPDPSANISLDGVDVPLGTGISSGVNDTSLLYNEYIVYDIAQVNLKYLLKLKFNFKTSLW

Experiments:
[1] = biological target: T1, hMCC-SBP-6×His (human MCC isoform 1 with a C-terminal SBP-6×His tag) (human) (UniProt P23508); assay: affinity purification with mass spectrometry; lysates of purified mitochondria of 8226 cells with hMCC-SBP-6×His; streptavidin-sepharose beads; LC-MS/MS of gel slices; FLAG-hMCC cells as negative control
T1 sequence: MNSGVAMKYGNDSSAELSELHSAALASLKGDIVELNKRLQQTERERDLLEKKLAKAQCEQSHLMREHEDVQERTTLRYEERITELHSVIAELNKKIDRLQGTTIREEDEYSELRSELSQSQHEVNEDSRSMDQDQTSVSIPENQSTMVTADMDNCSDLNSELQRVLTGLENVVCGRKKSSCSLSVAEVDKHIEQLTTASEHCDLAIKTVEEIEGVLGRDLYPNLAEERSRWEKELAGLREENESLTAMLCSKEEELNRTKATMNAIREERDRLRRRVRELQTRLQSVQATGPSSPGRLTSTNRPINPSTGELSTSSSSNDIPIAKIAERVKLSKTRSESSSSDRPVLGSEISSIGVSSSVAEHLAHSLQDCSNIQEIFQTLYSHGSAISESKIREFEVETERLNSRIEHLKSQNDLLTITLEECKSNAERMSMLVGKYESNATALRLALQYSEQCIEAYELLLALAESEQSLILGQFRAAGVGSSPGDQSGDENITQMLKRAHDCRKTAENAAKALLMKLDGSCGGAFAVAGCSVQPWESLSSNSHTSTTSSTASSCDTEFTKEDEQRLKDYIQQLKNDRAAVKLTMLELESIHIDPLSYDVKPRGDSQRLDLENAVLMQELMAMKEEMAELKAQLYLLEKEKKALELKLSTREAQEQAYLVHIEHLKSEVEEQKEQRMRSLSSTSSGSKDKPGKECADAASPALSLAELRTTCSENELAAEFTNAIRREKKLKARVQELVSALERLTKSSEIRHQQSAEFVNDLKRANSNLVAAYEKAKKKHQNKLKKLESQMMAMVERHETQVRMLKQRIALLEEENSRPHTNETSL

[2] = biological target: T1, hMCC-SBP-6×His (human MCC isoform 1 with a C-terminal SBP-6×His tag) (human); assay: affinity purification with mass spectrometry; whole cell lysates of 8226 cells with hMCC-SBP-6×His; streptavidin-sepharose beads; LC-MS/MS of gel slices; FLAG-hMCC cells as negative control
[3] = biological target: T1, hMCC-SBP-6×His (human MCC isoform 1 with a C-terminal SBP-6×His tag) (human); assay: as above; remark: listed apart in the source

ECHA (from UniProt P40939 37-763)
binding [1]: binds

ADT1 (from UniProt P12235 1-298)
binding [1]: binds

Poly [ADP-ribose] polymerase 1 (from UniProt P09874 1-1014)
binding [2]: binds | binding [1]: binds

B1: MCC isoform 2 (1019 aa) (protein, UniProt P23508-2 1-1019)
chain: MMAAAAAAAAGSSSSGGGGGGSGSSSSSSDTSSTGEEERMRRLFQTCDGDGDGYISRNDLLMVCRQLNMEESVAEIMNQLGADENGKISFQDFTRCRMQLVREIRKEEVDLSAKSDNSCTKKLRDRIASWPTSSDNSLGALSAARESWEYDSGARDLQSPDVQSQSALQKLLEYGGSSLHQQAALHKLLTQSPHIGNSVGGSYLELANTLHSAALASLKGDIVELNKRLQQTERERDLLEKKLAKAQCEQSHLMREHEDVQERTTLRYEERITELHSVIAELNKKIDRLQGTTIREEDEYSELRSELSQSQHEVNEDSRSMDQDQTSVSIPENQSTMVTADMDNCSDLNSELQRVLTGLENVVCGRKKSSCSLSVAEVDKHIEQLTTASEHCDLAIKTVEEIEGVLGRDLYPNLAEERSRWEKELAGLREENESLTAMLCSKEEELNRTKATMNAIREERDRLRRRVRELQTRLQSVQATGPSSPGRLTSTNRPINPSTGELSTSSSSNDIPIAKIAERVKLSKTRSESSSSDRPVLGSEISSIGVSSSVAEHLAHSLQDCSNIQEIFQTLYSHGSAISESKIREFEVETERLNSRIEHLKSQNDLLTITLEECKSNAERMSMLVGKYESNATALRLALQYSEQCIEAYELLLALAESEQSLILGQFRAAGVGSSPGDQSGDENITQMLKRAHDCRKTAENAAKALLMKLDGSCGGAFAVAGCSVQPWESLSSNSHTSTTSSTASSCDTEFTKEDEQRLKDYIQQLKNDRAAVKLTMLELESIHIDPLSYDVKPRGDSQRLDLENAVLMQELMAMKEEMAELKAQLYLLEKEKKALELKLSTREAQEQAYLVHIEHLKSEVEEQKEQRMRSLSSTSSGSKDKPGKECADAASPALSLAELRTTCSENELAAEFTNAIRREKKLKARVQELVSALERLTKSSEIRHQQSAEFVNDLKRANSNLVAAYEKAKKKHQNKLKKLESQMMAMVERHETQVRMLKQRIALLEEENSRPHTNETSL
binding [3]: binds | binding [1]: binds

B2: ADT3 (protein, UniProt P12236 1-298)
chain: MTEQAISFAKDFLAGGIAAAISKTAVAPIERVKLLLQVQHASKQIAADKQYKGIVDCIVRIPKEQGVLSFWRGNLANVIRYFPTQALNFAFKDKYKQIFLGGVDKHTQFWRYFAGNLASGGAAGATSLCFVYPLDFARTRLAADVGKSGTEREFRGLGDCLVKITKSDGIRGLYQGFSVSVQGIIIYRAAYFGVYDTAKGMLPDPKNTHIVVSWMIAQTVTAVAGVVSYPFDTVRRRMMMQSGRKGADIMYTGTVDCWRKIFRDEGGKAFFKGAWSNVLRGMGGAFVLVLYDELKKVI
binding [1]: binds
